Measurements published in publication PMC10729500.
No constants are given. Whether binding was seen depends on the method and setting. Binding seen in cells or lysates may run through a third protein. Some binding calls cover weakened binding; strength is not graded here.

Chains of the proteins cited; added tags and fusions are not shown. Lines headed by an entry give the natural chain unless they say otherwise; changes in a name come on top. A line that says so, or that is headed by a name, gives the form on record, which may keep a tag or linker.
V5-DNAJB6b (O75190, form named): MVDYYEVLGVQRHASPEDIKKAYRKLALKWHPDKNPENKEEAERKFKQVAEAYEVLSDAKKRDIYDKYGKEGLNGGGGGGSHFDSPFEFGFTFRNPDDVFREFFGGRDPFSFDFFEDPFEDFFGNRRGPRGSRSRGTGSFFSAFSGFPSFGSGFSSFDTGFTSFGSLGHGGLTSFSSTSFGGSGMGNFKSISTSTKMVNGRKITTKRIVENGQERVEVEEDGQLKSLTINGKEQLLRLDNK
UniProt P11142: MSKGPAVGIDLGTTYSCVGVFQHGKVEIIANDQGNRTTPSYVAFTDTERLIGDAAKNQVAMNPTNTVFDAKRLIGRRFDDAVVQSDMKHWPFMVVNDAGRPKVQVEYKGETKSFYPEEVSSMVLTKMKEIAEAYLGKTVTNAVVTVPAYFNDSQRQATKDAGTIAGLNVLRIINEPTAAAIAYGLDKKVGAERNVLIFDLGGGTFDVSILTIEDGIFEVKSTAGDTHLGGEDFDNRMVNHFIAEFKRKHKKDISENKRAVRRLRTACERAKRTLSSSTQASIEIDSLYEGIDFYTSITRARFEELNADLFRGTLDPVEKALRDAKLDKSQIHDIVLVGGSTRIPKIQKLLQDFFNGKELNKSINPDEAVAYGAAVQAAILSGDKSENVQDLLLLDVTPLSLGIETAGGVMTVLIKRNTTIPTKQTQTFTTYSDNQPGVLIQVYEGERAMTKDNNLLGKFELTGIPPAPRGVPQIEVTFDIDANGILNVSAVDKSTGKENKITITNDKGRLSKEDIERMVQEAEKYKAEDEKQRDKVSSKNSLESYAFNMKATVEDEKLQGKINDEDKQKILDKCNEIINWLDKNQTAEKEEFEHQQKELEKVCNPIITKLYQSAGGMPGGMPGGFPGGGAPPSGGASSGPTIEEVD

Target: V5-DNAJB6b (human) (UniProt O75190)
Assay: co-IP; SH-SY5Y cells co-expressing tau P301L and V5-DNAJB6a, V5-DNAJB6b or V5-DNAJB6b H31Q for 48 h; precipitated with anti-V5 antibody (2 ug/ml lysate, overnight, 4 C) and protein G magnetic beads; IP buffer 100 mM NaCl, 0.5% Triton X-100, 1 mM EDTA, 50 mM Tris-HCl pH 7.5; immunoblot

binding: binds
Substance: HSPA8 (from UniProt P11142 1-646)
